Our source for the log2 fold change values is the supplement of paper PMC10849652.

Sequences of proteins named here, by UniProt entry; tags and fusion partners are left off. A change or cut given only in a name is not applied to a line headed by its entry.
UniProt Q99570, whole entry, looked up: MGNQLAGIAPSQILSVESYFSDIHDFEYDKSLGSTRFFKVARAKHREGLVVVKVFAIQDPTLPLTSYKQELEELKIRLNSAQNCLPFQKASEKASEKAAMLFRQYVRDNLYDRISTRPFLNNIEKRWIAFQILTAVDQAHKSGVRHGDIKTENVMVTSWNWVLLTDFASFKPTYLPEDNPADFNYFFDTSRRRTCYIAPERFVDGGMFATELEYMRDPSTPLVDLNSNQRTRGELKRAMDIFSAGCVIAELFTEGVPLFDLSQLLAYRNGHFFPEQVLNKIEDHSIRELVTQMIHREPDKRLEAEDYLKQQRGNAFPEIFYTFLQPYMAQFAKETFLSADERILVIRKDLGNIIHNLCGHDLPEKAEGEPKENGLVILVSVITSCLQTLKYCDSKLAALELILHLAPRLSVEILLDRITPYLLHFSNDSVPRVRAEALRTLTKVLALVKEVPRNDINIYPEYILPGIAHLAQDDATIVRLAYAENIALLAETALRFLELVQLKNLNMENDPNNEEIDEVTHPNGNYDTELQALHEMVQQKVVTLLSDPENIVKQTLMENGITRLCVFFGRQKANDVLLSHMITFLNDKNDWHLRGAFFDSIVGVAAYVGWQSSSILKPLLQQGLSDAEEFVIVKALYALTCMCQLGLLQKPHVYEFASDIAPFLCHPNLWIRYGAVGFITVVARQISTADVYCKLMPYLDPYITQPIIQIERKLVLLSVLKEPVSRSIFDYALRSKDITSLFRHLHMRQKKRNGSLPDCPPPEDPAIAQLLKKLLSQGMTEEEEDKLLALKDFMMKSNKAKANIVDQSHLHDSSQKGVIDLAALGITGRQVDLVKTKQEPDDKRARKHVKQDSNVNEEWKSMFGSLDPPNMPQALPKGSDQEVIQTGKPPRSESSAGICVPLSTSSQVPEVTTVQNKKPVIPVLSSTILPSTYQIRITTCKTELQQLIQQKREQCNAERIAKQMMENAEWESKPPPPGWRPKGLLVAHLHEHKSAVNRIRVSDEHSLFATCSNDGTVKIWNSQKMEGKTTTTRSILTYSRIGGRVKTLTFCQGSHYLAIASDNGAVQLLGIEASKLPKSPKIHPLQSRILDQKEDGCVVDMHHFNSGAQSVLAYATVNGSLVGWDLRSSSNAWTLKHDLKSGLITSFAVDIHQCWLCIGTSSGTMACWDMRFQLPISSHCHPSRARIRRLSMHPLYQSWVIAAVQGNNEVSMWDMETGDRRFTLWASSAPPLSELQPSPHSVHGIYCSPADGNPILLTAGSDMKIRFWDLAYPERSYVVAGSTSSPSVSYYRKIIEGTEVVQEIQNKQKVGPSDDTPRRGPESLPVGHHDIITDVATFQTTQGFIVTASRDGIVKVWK
UniProt Q9Y237, whole entry, looked up: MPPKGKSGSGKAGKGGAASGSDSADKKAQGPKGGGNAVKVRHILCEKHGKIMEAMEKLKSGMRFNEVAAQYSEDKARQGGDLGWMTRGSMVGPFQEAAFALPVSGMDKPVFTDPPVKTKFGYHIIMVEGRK
UniProt Q16816: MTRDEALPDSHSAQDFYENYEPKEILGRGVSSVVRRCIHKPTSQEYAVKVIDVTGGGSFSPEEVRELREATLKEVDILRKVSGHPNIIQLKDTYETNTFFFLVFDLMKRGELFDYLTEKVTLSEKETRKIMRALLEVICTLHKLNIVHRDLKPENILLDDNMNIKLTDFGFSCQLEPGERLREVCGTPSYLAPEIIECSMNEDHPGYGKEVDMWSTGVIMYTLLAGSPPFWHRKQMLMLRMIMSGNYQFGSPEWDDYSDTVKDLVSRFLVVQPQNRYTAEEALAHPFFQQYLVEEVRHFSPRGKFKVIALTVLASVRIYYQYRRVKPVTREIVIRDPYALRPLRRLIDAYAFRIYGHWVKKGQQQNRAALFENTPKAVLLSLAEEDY
UniProt Q8IV08: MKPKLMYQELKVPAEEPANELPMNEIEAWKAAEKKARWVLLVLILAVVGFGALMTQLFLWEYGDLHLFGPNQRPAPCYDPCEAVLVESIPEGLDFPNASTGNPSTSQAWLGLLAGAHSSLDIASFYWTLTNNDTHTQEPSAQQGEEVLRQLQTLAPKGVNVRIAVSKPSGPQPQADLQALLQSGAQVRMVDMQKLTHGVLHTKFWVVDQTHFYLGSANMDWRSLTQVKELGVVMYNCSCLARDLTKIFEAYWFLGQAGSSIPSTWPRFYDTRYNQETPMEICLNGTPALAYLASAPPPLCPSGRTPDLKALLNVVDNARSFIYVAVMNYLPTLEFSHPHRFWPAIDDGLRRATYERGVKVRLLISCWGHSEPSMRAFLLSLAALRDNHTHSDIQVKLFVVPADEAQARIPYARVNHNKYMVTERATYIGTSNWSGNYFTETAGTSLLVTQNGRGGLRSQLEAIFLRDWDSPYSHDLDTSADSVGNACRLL
UniProt Q96G03: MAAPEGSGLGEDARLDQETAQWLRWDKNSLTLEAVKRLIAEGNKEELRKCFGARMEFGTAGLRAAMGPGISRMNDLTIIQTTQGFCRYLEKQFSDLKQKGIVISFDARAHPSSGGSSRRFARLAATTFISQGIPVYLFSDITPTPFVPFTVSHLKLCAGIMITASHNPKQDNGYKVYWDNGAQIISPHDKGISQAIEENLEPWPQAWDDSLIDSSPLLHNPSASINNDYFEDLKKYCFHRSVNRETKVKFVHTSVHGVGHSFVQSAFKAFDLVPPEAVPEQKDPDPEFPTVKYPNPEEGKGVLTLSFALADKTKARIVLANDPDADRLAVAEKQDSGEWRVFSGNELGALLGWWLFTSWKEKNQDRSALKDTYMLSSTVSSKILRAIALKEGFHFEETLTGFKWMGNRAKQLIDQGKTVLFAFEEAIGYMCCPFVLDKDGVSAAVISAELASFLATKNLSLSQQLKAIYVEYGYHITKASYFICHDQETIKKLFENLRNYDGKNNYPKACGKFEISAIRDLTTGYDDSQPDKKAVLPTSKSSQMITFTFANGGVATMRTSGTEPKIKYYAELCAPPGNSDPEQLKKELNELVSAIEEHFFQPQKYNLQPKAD
UniProt Q15111: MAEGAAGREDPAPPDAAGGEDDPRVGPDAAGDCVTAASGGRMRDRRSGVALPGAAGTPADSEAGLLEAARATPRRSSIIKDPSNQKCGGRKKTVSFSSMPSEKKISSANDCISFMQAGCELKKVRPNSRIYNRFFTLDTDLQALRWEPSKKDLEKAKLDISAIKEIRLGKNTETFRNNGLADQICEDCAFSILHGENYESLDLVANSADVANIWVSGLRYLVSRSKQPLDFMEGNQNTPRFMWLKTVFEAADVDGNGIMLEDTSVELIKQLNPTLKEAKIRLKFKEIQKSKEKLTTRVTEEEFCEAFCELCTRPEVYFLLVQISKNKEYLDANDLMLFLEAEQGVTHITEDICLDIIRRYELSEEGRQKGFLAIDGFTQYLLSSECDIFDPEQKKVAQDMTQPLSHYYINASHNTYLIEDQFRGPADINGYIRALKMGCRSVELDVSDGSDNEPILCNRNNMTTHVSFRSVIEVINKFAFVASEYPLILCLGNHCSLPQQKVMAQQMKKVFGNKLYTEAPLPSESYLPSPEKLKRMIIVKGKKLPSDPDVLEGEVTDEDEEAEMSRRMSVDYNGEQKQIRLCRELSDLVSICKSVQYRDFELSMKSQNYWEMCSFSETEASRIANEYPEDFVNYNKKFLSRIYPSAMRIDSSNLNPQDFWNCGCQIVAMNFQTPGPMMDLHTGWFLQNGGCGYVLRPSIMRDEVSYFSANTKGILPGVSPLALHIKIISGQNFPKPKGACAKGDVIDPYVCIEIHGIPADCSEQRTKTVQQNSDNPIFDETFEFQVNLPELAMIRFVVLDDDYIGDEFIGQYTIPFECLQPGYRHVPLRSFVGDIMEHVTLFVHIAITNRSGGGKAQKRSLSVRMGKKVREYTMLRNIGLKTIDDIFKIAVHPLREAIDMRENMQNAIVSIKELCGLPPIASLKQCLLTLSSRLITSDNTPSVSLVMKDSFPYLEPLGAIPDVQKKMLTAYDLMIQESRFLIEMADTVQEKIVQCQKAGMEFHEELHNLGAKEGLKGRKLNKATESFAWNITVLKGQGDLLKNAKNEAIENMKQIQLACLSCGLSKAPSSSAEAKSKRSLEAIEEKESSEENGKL
UniProt Q8WXW3: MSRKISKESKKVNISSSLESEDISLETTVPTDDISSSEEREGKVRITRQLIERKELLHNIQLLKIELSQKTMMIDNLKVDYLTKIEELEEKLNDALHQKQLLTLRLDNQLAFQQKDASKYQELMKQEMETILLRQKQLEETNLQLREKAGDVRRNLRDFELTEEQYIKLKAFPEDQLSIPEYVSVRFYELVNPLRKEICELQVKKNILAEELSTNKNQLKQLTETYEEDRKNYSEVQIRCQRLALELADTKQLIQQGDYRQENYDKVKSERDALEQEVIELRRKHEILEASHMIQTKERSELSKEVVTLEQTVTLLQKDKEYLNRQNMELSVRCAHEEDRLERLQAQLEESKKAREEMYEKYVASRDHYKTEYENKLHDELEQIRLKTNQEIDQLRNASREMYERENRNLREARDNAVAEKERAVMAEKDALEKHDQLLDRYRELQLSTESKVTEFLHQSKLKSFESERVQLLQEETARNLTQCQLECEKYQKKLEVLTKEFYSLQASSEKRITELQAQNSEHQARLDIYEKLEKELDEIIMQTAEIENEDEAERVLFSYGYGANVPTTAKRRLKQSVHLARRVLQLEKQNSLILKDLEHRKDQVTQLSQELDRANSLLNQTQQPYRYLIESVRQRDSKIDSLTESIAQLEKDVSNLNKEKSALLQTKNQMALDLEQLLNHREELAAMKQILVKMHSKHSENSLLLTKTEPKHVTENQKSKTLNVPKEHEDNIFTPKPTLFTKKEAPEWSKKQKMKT
UniProt Q86T03: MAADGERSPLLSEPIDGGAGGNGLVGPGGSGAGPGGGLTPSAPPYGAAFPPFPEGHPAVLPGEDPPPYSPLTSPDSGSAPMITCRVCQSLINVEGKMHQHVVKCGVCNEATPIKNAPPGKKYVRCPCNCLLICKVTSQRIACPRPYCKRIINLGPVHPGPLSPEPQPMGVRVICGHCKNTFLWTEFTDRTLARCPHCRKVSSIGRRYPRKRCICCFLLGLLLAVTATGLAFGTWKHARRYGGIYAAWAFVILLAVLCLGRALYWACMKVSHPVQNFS
UniProt Q16512: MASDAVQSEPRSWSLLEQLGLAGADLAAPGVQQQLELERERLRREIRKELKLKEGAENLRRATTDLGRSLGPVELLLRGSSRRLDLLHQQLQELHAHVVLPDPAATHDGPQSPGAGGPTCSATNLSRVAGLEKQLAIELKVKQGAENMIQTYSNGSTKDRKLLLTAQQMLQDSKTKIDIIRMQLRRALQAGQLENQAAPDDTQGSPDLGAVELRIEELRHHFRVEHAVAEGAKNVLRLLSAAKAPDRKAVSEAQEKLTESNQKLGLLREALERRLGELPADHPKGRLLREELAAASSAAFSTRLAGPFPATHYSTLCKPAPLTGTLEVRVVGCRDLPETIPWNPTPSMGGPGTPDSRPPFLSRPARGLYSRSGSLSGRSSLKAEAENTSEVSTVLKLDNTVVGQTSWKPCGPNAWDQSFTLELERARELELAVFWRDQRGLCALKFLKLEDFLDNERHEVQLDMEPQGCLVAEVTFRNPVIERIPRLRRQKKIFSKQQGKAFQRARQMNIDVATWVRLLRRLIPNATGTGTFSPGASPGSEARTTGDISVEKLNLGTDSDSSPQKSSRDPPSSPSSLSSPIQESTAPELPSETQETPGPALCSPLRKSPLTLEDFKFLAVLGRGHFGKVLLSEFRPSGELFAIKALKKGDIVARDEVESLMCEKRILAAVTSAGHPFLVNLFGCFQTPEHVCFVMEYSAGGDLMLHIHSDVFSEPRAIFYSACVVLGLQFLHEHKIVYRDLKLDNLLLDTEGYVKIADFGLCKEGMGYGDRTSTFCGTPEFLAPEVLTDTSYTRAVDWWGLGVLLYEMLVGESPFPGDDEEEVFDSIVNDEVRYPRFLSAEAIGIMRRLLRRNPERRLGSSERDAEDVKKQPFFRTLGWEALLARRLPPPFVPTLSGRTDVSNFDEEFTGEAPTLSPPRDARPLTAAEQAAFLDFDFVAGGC

Some of the results follow.

Assay in all cases: log2 fold change, soluble protein after heating vs DMSO (PISA); higher = thermal stabilisation; K562 lysate, 10 uM; active = over 0.2 and 3.5 SD of the protein, either way, in both replicates (recomputed)
Compound in assay [1]: Cc1cn(-c2cc(NC(=O)c3ccc(C)c(Nc4nccc(-c5cccnc5)n4)c3)cc(C(F)(F)F)c2)cn1 [nilotinib]
In short, it runs like this: (§1)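 The values are log-two fold changes in thermal stability compared with solvent controls and come from duplicates. They were obtained by TMTpro 16plex LC-MS/MS, with channel sums equalised, on the supernatant after 21,000xg for 90 min. That supernatant came from crude K562 extract at 1 mg/mL protein treated with 10 μM compound for 30 min, heated for 3 min across 48°C-58°C, pooled and brought to 0.5% NP-40 at 4°C.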

Compound in assay [2]: Cc1nc(Nc2n[nH]c3c2CN(C(=O)N[C@H](CN(C)C)c2ccccc2)C3(C)C)c2sccc2n1
In short, it runs like this:
as §1

Compound in assay [3]: Cc1nc(Nc2ncc(C(=O)Nc3c(C)cccc3Cl)s2)cc(N2CCN(CCO)CC2)n1 [dasatinib]
The essentials:
as §1

Compound in assay [4]: Cc1ncc(-c2ccnc(Nc3ccc(S(C)(=O)=O)cc3)n2)n1C(C)C
In short, it runs like this: as §1

Compound in assay [5]: Cn1cc(-c2ccc3c(c2)CCN3C(=O)Cc2cccc(C(F)(F)F)c2)c2c(N)ncnc21
In short, it runs like this: as §1

Compound in assay [6]: Cn1cc(CNCC2CCN(c3ncc(C(=O)NO)cn3)CC2)c2ccccc21 [quisinostat]
In short, it runs like this:
as §1

Compound in assay [7]: Cn1cncc1[C@@](N)(c1ccc(Cl)cc1)c1ccc2c(c1)c(-c1cccc(Cl)c1)cc(=O)n2C [tipifarnib]
The essentials: as §1

Compound in assay [8]: NC(=O)Nc1cc(-c2cccc(F)c2)sc1C(=O)N[C@H]1CCCNC1
The essentials: as §1

Compound in assay [9]: NC(=O)c1cnc(N[C@@H]2CCCC[C@@H]2N)nc1Nc1cccc(-n2nccn2)c1
The essentials: as §1

Compound in assay [10]: NC1(c2ccc(-c3nc4ccn5c(=O)[nH]nc5c4cc3-c3ccccc3)cc2)CCC1
The essentials: as §1

Compound in assay [11]: NCC(=O)Nc1ccc(-n2nc(C(F)(F)F)cc2-c2ccc3c(ccc4ccccc43)c2)cc1
The essentials:
as §1

Compound in assay [12]: O=C(CCCCCCC(=O)Nc1ccccc1)NO [vorinostat]
In short, it runs like this: as §1

Compound in assay [13]: O=C(O)c1ccc2c(c1)nc(Nc1cccc(Cl)c1)c1ccncc12 [silmitasertib]
The essentials:
as §1

Compound in assay [14]: O=C1NC(=O)C(c2cnc3ccccn23)=C1c1cn2c3c(cc(F)cc13)CN(C(=O)N1CCCCC1)CC2
The essentials: as §1

Compound in assay [15]: c1cn2cc(-c3ccc4cn[nH]c4c3)nc(Nc3ccc(N4CCOCC4)cc3)c2n1 [entospletinib]
In short, it runs like this: as §1

With PIK3R4 (UniProt Q99570), the log2 fold change in [1] was inactive: -0.01; in assay [2] it was inactive: 0.008; in [3], inactive: -0.018; in assay [4], inactive: 0.025; in assay [5], inactive: 0.003; in assay [6], inactive: -0.066. For the same target, the log2 fold change in [7] is inactive: -0.018; in assay [8], inactive: 0.024; in assay [9] it was inactive: 0.032; in assay [10], inactive: 0.033; in [11] it was inactive: -0.003; in [12] it was inactive: -0.104. Moreover, the log2 fold change was inactive: 0.071 in assay [13], inactive: 0.048 in assay [14] and inactive: 0.013 in assay [15].
Regarding PIN4 isoform 2 (UniProt Q9Y237), the log2 fold change in assay [1] was inactive: 0.038; in assay [2] it was inactive: -0.026; in assay [3], inactive: -0.002; in assay [4], inactive: -0.015; in [5] it was inactive: 0.001; in assay [6], inactive: 0.041. Moreover, the log2 fold change was inactive: -0.017 in assay [7]; inactive: 0 in assay [8]; inactive: -0.034 in [9]; inactive: 0.002 in assay [10]; inactive: -0.001 in [11]; inactive: 0.075 in assay [12]. Further, the log2 fold change in assay [13] is inactive: -0.005; in assay [14], inactive: -0.031; in assay [15], inactive: -0.013.
For the target PHKG1 isoform 2 (UniProt Q16816), the log2 fold change in [1] was inactive: -0.049; in assay [2], active: 1.01; in assay [3], inactive: -0.124; in [4], inactive: -0.204; in [5], inactive: -0.021; in assay [6], inactive: -0.151. The log2 fold change in [7] was inactive: -0.007; in assay [8] it was active: 1.31; in assay [9] it was inactive: 0.043; in assay [10], inactive: -0.181; in assay [11], inactive: 0.053; in assay [12] it was inactive: -0.342. Besides, the log2 fold change in [13] was inactive: 0.259; in [14] it was inactive: -0.123; in [15], inactive: -0.002.
In the case of PLD3 (UniProt Q8IV08), the log2 fold change in assay [1] is inactive: -0.01; in [2], inactive: -0.013; in assay [3], inactive: -0.029; in assay [4], inactive: -0.01; in assay [5] it was inactive: 0.01; in [6] it was inactive: -0.046. The log2 fold change in [7] was inactive: -0.022; in assay [8] it was inactive: 0.042; in [9] it was inactive: 0.02; in assay [10], inactive: 0.019; in [11], inactive: -0.012; in assay [12], inactive: 0.073. The log2 fold change in assay [13] was inactive: 0.017; in [14] it was inactive: -0.031; in assay [15], inactive: 0.013.
For PGM2 (UniProt Q96G03), the log2 fold change is inactive: 0.014 in assay [1]; inactive: -0.005 in [2]; inactive: 0.016 in assay [3]; inactive: 0.028 in [4]; inactive: 0.005 in [5]; inactive: 0.005 in assay [6]. The log2 fold change was inactive: 0.008 in assay [7]; inactive: -0.017 in assay [8]; inactive: -0.002 in assay [9]; inactive: 0.019 in assay [10]; inactive: -0.004 in [11]; inactive: 0.141 in assay [12]. Further, the log2 fold change in [13] was inactive: -0.018; in assay [14], inactive: 0.006; in assay [15], inactive: 0.027.
On to PLCL1 (UniProt Q15111), for which the log2 fold change in assay [1] was inactive: 0.037; in [2], inactive: -0.018; in [3] it was inactive: 0.004; in assay [4] it was inactive: 0.018; in assay [5], inactive: -0.001; in assay [6], inactive: -0.024. Besides, the log2 fold change in assay [7] is inactive: 0.001; in assay [8] it was inactive: 0.016; in assay [9], inactive: -0.003; in assay [10] it was inactive: -0.015; in [11], inactive: 0.07; in assay [12] it was inactive: -0.101. Moreover, the log2 fold change in assay [13] was inactive: 0.011; in assay [14], inactive: -0.017; in assay [15], inactive: -0.015.
On to PIBF1 (UniProt Q8WXW3), for which the log2 fold change was inactive: 0.039 in assay [1]; inactive: -0.011 in [2]; inactive: 0.007 in [3]; inactive: 0.045 in [4]; inactive: 0.05 in assay [5]; inactive: -0.058 in assay [6]. For the same target, the log2 fold change is inactive: -0.025 in assay [7]; inactive: 0.015 in assay [8]; inactive: 0.062 in assay [9]; inactive: 0.037 in assay [10]; inactive: 0.035 in assay [11]; inactive: -0.048 in assay [12]. Besides, the log2 fold change is inactive: 0.019 in assay [13], inactive: -0.024 in [14] and inactive: -0.012 in assay [15].
For the target PIP4P1 isoform 2 (UniProt Q86T03), the log2 fold change in assay [1] is inactive: 0.005; in [2], inactive: 0.022; in [3], inactive: -0.019; in [4] it was inactive: 0.056; in assay [5], inactive: -0.027; in assay [6], inactive: 0.052. Also, the log2 fold change in assay [7] is inactive: -0.01; in assay [8], inactive: -0.04; in assay [9], inactive: 0.007; in assay [10], inactive: -0.013; in assay [11] it was inactive: 0.023; in [12], inactive: -0.17. Besides, the log2 fold change in [13] is inactive: 0.02; in assay [14], inactive: 0.017; in assay [15] it was inactive: -0.034.
With PKN1 isoform 2 (UniProt Q16512), the log2 fold change in [1] was inactive: -0.014; in [2], inactive: -0.098; in assay [3], inactive: -0.14; in [4], inactive: -0.002; in [5], inactive: 0; in assay [6], inactive: 0.102. In addition, the log2 fold change in assay [7] is inactive: 0.009; in [8] it was inactive: -0.128; in [9] it was inactive: -0.054; in [10], inactive: -0.004; in [11], inactive: 0.002; in assay [12] it was inactive: -0.131. Besides, the log2 fold change in assay [13] is inactive: -0.012; in assay [14] it was inactive: -0.138; in assay [15] it was inactive: -0.009.
